Results: article doi:10.1101/2023.05.09.540094
Results are given in words; binding and its absence hold for the method and conditions named. Some entries that bind do so weakly or less than the wild type.

Protein sequences, listed by entry. Tags and fused reporters are not part of them.
UniProt P17980: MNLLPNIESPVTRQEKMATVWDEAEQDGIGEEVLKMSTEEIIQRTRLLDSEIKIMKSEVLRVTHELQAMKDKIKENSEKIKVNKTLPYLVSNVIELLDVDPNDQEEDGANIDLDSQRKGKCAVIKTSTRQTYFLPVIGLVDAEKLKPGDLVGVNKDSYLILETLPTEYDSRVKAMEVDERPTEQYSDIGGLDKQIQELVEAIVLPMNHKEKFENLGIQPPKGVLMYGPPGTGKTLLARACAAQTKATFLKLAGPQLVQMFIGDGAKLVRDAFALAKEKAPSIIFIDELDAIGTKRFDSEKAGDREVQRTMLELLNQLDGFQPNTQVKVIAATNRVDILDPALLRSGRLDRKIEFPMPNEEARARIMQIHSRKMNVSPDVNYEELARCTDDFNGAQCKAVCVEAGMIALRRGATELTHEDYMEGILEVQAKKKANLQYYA
UniProt Q13200: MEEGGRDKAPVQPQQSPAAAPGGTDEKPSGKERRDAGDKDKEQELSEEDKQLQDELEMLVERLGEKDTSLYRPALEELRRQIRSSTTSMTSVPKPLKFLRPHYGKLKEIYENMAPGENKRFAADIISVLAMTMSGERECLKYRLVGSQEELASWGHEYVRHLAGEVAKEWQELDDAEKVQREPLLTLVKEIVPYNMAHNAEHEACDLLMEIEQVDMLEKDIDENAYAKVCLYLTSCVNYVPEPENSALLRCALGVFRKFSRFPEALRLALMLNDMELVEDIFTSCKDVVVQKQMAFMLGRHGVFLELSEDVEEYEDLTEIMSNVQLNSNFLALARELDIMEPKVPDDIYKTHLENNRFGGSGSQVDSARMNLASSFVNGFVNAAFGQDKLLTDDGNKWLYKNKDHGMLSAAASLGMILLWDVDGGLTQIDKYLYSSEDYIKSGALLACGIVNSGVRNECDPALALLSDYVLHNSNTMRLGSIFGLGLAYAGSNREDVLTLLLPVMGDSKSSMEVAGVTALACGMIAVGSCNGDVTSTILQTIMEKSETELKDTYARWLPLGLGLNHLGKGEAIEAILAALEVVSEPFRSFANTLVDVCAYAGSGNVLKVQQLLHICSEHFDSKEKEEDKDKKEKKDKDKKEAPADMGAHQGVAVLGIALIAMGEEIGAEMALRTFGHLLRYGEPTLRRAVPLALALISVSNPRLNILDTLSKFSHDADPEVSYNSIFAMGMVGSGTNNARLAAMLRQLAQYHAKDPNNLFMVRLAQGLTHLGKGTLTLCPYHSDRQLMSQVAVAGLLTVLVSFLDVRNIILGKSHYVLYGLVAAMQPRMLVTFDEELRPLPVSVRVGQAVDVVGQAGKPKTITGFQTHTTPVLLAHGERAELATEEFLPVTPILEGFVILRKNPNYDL
UniProt P35998: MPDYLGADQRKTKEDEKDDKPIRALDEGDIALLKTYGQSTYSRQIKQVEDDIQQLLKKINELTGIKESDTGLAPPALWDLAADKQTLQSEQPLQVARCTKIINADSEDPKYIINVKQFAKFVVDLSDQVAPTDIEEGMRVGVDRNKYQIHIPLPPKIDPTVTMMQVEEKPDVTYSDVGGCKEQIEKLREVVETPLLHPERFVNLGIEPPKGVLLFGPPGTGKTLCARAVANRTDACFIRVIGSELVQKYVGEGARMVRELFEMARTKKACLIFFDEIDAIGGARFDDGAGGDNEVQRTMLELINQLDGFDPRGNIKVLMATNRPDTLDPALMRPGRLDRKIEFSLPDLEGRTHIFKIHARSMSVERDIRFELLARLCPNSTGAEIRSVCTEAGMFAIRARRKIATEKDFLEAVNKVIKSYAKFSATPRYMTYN
UniProt P25788: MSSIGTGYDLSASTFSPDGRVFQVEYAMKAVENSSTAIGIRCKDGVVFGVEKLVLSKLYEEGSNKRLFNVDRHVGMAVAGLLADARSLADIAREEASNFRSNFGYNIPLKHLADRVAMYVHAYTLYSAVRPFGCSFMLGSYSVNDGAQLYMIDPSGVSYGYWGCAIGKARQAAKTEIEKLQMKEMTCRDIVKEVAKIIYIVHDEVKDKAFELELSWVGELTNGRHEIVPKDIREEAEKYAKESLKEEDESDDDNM

Tests used:
[1] = biological target: Rpt5 ATPase subunit of the human 26S proteasome (human (endogenous in HEK293)) (UniProt P17980); assay: cross-linking
[2] = biological target: Rpn1 non-ATPase subunit of the human 26S proteasome (human (endogenous in HEK293)) (UniProt Q13200); assay: cryo-EM structure
[3] = biological target: Rpt1 ATPase subunit of the human 26S proteasome (human (endogenous in HEK293)) (UniProt P35998); assay: cryo-EM structure
[4] = biological target: Rpt5 ATPase subunit of the human 26S proteasome (human (endogenous in HEK293)) (UniProt P17980); assay: cryo-EM structure
[5] = substrate: CP subunit α7 of the human 26S proteasome (human (endogenous in HEK293)) (UniProt P25788); assay: cryo-EM structure

Measured: binding

B1: ZFAND5/ZNF216, recombinant wild type (protein, UniProt O76080 1-213)
chain: MAQETNQTPGPMLCSTGCGFYGNPRTNGMCSVCYKEHLQRQQNSGRMSPMGTASGSNSPTSDSASVQRADTSLNNCEGAAGSTSEKSRNVPVAALPVTQQMTEMSISREDKITTPKTEVSEPVVTQPSPSVSQPSTSQSEEKAPELPKPKKNRCFMCRKKVGLTGFDCRCGNLFCGLHRYSDKHNCPYDYKAEAAAKIRKENPVVVAEKIQRI
binds: all assays above
